# Values from PubChem BioAssay AID1053208 (Peter MacCallum Cancer Centre, 2014).
# Purpose: 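Find knock-downs that sensitise mouse osteosarcoma cells to doxorubicin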 (primary screen)
# System: mouse osteosarcoma cells, early-passage culture from an engineered mouse model of fibroblastic bone tumour
# Knock-down reagent: siRNA pool against mouse genes, 40 nM
# Time to read-out: about 120 h (48 h before drug, then 72 h with drug)
# Treatment: doxorubicin 100 nM for 72 h, roughly 30-40% inhibitory dose
# Measurement: 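Viability read as ATP luminescence after 72 h of 100 nM doxorubicin or none, duplicate wells averaged, scaled to non-targeting siRNA, then expressed as robust z-scores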
# Reading the numbers: viability z-score with doxorubicin: higher = more viable cells under doxorubicin; viability z-score without drug: higher = more viable cells with knock-down alone
# Rule for the call: 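Called active if knock-down leaves viability unchanged without drug (z within -2 to 2) but lowers it with doxorubicin (z at or under -2)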
# The deposit covers about 17,000 reagents; this is an unselected part. Of all reagents, 788 (4.7%) were called active. 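Calls rest on z-score classes alone; an extra cut-off of viability at most 70% of control was not applied to them.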 Entries without a mark were called inactive. Further read-outs or replicates are left out here.
Gene,PubChem SID,combined z-score class,viability z-score with doxorubicin,viability z-score without drug
"Kcnv1 (potassium channel, subfamily V, member 1)",SID152300953,no change with or without drug,1.24,0.51
Or8c15 (olfactory receptor family 8 subfamily C member 15),SID152340031,no change with or without drug,0.79,0.84
"Snap47 (synaptosomal-associated protein, 47)",SID152329640,no change with or without drug,-1.57,-0.34
Or3a10 (olfactory receptor family 3 subfamily A member 10),SID152288917,no change with or without drug,-0.9,-1.85
Rac3 (Rac family small GTPase 3),SID152327916,no change with or without drug,-0.11,-0.51
Nus1 (NUS1 dehydrodolichyl diphosphate synthase subunit),SID152298709,no change with or without drug,-0.45,-1.35
Xylt2 (xylosyltransferase II),SID152324711,no change with or without drug,-0.34,0.17
Skp2 (S-phase kinase-associated protein 2),SID152321853,no change with or without drug,-0.45,1.01
Fgf7 (fibroblast growth factor 7),SID152335059,no change with or without drug,-0.22,0.51
2610318N02Rik (RIKEN cDNA 2610318N02 gene),SID152315735,no change with or without drug,0.56,-1.52
Add1 (adducin 1),SID152333224,no change with or without drug,1.46,1.69
Spata16 (spermatogenesis associated 16),SID152281211,no change with or without drug,0,0.17
Ctrl (chymotrypsin-like),SID152268023,no change with or without drug,1.35,-0.17
"Cav1 (caveolin 1, caveolae protein)",SID152323467,no change with or without drug,-0.45,0.84
Smchd1 (SMC hinge domain containing 1),SID152298182,no change with or without drug,-1.12,-1.18
Saxo6 (stabilizer of axonemal microtubules 6),SID152321622,no change with or without drug,-0.45,1.18
Bcl11a (BCL11 transcription factor A),SID152278706,no change with or without drug,0.22,0
Mapt (microtubule-associated protein tau),SID152340522,no change with or without drug,1.12,-0.84
"Fpr-rs6 (formyl peptide receptor, related sequence 6)",SID152330949,no change with or without drug,0.9,0.34
Rnf113a1 (ring finger protein 113A1),SID152336379,no change with or without drug,-1.57,-0.84
Nfatc2,SID152314831,no change with or without drug,1.35,0.84
Rasa3 (RAS p21 protein activator 3),SID152282717,no change with or without drug,0.56,0.51
Dock6 (dedicator of cytokinesis 6),SID152261183,no change with or without drug,0.67,0.51
Elp3 (elongator acetyltransferase complex subunit 3),SID152330049,high cell count without drug only,0.56,2.53
Pttg1 (pituitary tumor-transforming gene 1),SID152285598,no change with or without drug,0,0.84
